About 22,000 (6.9%) of roughly 320,000 compounds were called active. This list was built around the results that the source calls inconclusive (neither active nor inactive); the mix of calls is not that of the screen. The call rests on the fitted dose curve; in most records, active means well fitted inhibition curve with a large enough effect; inconclusive means small, poorly fitted or top-dose-only effect, or another doubt; inactive means no such curve, though single readings can be large or run the other way. A potency beside an inconclusive call is a rough fit, not a confirmed value.
experiment: Primary qHTS for delayed death inhibitors of the malarial parasite plastid, 96 hour incubation; details: P. falciparum luciferase reporter growth; series mostly up to 28.7 µM
Outline: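 Cell-based qHTS: luciferase-tagged P. falciparum in erythrocytes (2% hematocrit, 0.05% parasitemia final) incubated with compounds for 96 hours, 37 C, 5% CO2; luciferase detection reagent then added and luminescence measured.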
Potency means the concentration at half of the fitted maximal effect.

SMILES	Potency
COc1cc(NC(=O)CN2C(=O)c3ccccc3Sc3ccc(C(=O)N4CCOCC4)cc32)cc(OC)c1OC	inconclusive: 2.62 µM [inhibitor, full curve]
Cc1sc(NC(=O)C2C3C=CC(C3)C2C(=O)O)c(C(N)=O)c1-c1ccc(C(C)C)cc1 (stereo not given)	inactive
CN(Cc1ccc(F)cc1)C(=O)c1cccc(S(=O)(=O)N2CCN(c3ccccc3)CC2)c1	inconclusive: 10.4 µM [inhibitor, single point]
O=C(NNC(=O)c1ccc(-c2ccccc2)cc1)c1ccccc1	inconclusive: 13.1 µM [inhibitor, partial curve, poor fit]
CCCCC(=O)NNC(=O)CC(=O)Nc1ccccc1C(=O)O	inconclusive: 1.31 µM [inhibitor, partial curve, poor fit]
COCCOc1ccc(C(F)(F)F)cc1NC(=O)COC(=O)C12CC3CC(CC(O)(C3)C1)C2	inconclusive: 2.62 µM [inhibitor, full curve]
CCN1CCN(C(c2ccc(F)cc2)c2nnnn2Cc2cccs2)CC1 (stereo not given)	inconclusive: 14.7 µM [inhibitor, single point]
NC(=O)CC(NC(=O)Cc1ccc(Cl)cc1)c1ccc(NCCCN2CCCC2=O)c([N+](=O)[O-])c1 (stereo not given)	inconclusive: 0.0033 µM [inhibitor, full curve, poor fit]
O=C1CC(c2ccc(F)cc2)CC(O)=C1C1NCCc2ccccc21 (stereo not given)	inactive
O=S(=O)(Nc1nc2ccccc2[nH]1)c1ccc(Cl)cc1	inconclusive: 4.15 µM [inhibitor, single point]
COc1ccccc1N1CCN(C(c2cc3cc(C)ccc3[nH]c2=O)c2nnnn2C2CCCC2)CC1 (stereo not given)	inactive
CCC1(c2ccc(Cl)cc2)NC(=O)N(CC(=O)NC2CCCCCC2)C1=O (stereo not given)	inactive
CC(=O)Nc1cnc(NC(=O)c2cccc(F)c2)cc1C	inactive
COc1cc(/C=c2\s/c(=C(/C#N)C(=O)N3CCCC3)n(-c3ccccc3)c2=O)ccc1O	inactive
COC1CCCN(Cc2c(C(=O)N3CCN(C4CCCCC4)CC3)nc3ccccn23)C1 (stereo not given)	inactive
O=C(CSc1cc(Cl)ccc1Cl)Nc1ccc(N2CCOCC2)cc1	inconclusive: 0.0657 µM [inhibitor, full curve, poor fit]
Cc1cc(N2CCN(C)CC2)ccc1NC(=O)c1ccc(-c2ccc(Cl)cc2)o1	active: 4.15 µM
COc1ccc2ccccc2c1/C=N/NC(=S)NCCN1CCOCC1	inconclusive: 18.5 µM [inhibitor, single point]
CCOc1cc(N2CCOCC2)c(OCC)cc1NC(C)C(=O)N1CCN(CC)CC1 (stereo not given)	inconclusive: 11.7 µM [inhibitor, single point]
COc1ccc(OCC(O)CNS(=O)(=O)c2cccs2)cc1 (stereo not given)	inactive
CC(C)(O)c1[nH]c2ccc(C(F)(F)F)cc2c1C(C)(C)O	inactive
Cc1cccc(C(=O)Nc2ccc(Cl)cc2C(=O)c2ccccc2)c1	inconclusive: 0.294 µM [inhibitor, partial curve, poor fit]
CCCNC(=O)COc1coc(CN2CCN(c3ccc(F)cc3)CC2)cc1=O	inconclusive: 13.1 µM [inhibitor, partial curve]

Exported as a markdown table: part of the list above.

| SMILES | Potency |
| --- | --- |
| CCN1CCN(C(c2ccc(F)cc2)c2nnnn2Cc2cccs2)CC1 (stereo not given) | inconclusive: 14.7 µM [inhibitor, single point] |
| NC(=O)CC(NC(=O)Cc1ccc(Cl)cc1)c1ccc(NCCCN2CCCC2=O)c([N+](=O)[O-])c1 (stereo not given) | inconclusive: 0.0033 µM [inhibitor, full curve, poor fit] |

(more compounds)

SMILES	Potency
C=CCn1c(C)csc1=Nc1ccccc1C	inconclusive: 16.5 µM [inhibitor, partial curve, poor fit]
CN1C(=O)/C(=C\c2ccccc2)Sc2ccc(C(=O)N3CCN(c4ccccn4)CC3)cc21	inconclusive: 18.5 µM [inhibitor, single point]
CCOc1cccc(C2/C(=C(/O)c3ccc4c(c3)CC(C)O4)C(=O)C(=O)N2Cc2ccncc2)c1 (stereo not given)	inactive
CCCc1cc(=O)oc2cc(OCC(=O)NCCCN3CCCC3=O)ccc12	inconclusive: 13.1 µM [inhibitor, single point]
COc1cc2c(cc1OC)CN(Cc1cc(OC)c3c(c1)OCO3)CC2	inconclusive: 14.7 µM [inhibitor, partial curve, poor fit]
CC(C)(C)c1csc(NC(=O)Cc2cccs2)n1	inactive
O=C(Nc1ccc(F)cc1)NC1CCCc2ccccc21 (stereo not given)	inconclusive: 18.5 µM [inhibitor, single point]
CCOC(=O)N1CCN(C(=O)CSc2nnc(Cc3ccccc3)o2)CC1	inconclusive: 9.28 µM [inhibitor, partial curve, poor fit]
COc1cc(C(=O)N/N=C/c2cn(Cc3ccccc3)c3ccccc23)ccc1O	inactive
COc1ccc(NC(=O)CCCSc2ccccc2)cc1	inactive
CCCCCCCCCCCCCCCCOP(=O)([O-])OCC[N+](C)(C)C	active: 7.57 µM
CCOC(=O)c1[nH]c(C)c(C)c1C	active: 11.7 µM
COc1cc(CCNC(=O)CCCn2c(=O)c3cccn3c3cccnc32)cc(OC)c1OC	inconclusive: 18.5 µM [inhibitor, single point]
Cn1c(SCC(=O)N2CCN(c3ccccc3)CC2)nnc1-c1cc2ccccc2o1	inconclusive: 10.4 µM [inhibitor, partial curve]
O=C(CCN1CCN(c2ccccc2)CC1)c1ccc(Cl)cc1	inactive
O=C(NNC1=NCCN1Cc1ccccc1)c1cccc(C(F)(F)F)c1	inconclusive: 13.1 µM [inhibitor, partial curve, poor fit]
CC(=O)Oc1ccc(-c2cccc(C(=O)NCCCO)c2)cc1	inactive
O=[N+]([O-])c1cc(Cl)ccc1N1CCN(c2cccc(C(F)(F)F)c2)CC1	active: 11.7 µM
C=C(C)C(=O)Nc1cccc(C2=NOC3(C2)C[C@H](C(N)=O)N(C(=O)c2ccccc2C(=O)c2ccccc2)C3)c1 (stereo not given in full)	active: 13.1 µM
C=CCN1C(=O)/C(=C\c2ccc(OC(=O)c3ccco3)c(OC)c2)SC1=S	inconclusive: 2.33 µM [inhibitor, single point]
CC1CC(C)CN(S(=O)(=O)c2ccc3oc(=O)ccc3c2)C1 (stereo not given)	inactive
Cc1cccc(CN2CCC(CNC(=O)Cn3ncc4c([nH]c5ccccc54)c3=O)CC2)c1	inconclusive: 10.4 µM [inhibitor, partial curve, poor fit]

Reference: PubChem BioAssay AID504834 (National Center for Advancing Translational Sciences (NCATS), 2011)
